Laboratory results: PubChem BioAssay AID504784 (Drosophila RNAi Screening Center, 2011)
Assay: 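Fly genes whose silencing alters how much lipid cells keep in droplets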 (primary screen). Cells: Drosophila Kc167 embryonic cells. Reagents: long dsRNA against Drosophila genes, about 250 ng dsRNA per well. Timing: 4 days. Conditions: cells fed 400 µM oleic acid bound to BSA. Detection: 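Microscope images give a droplet-to-nucleus area ratio, taken as log and converted to a screen-wide B-score; higher values mean greater lipid storage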. Direction: droplet/nuclear area B-score: higher = more stored lipid (overstorage).
The screen tested about 17,000 reagents; shown is a random part of those that have a named target and a result. 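Each column is one replicate's B-score; the combined score over replicates was not deposited, so single values may mislead.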 The numbers tell different reagents against one gene apart. Names joined by + are all predicted targets of the reagent. Reagent sequences are not shown.

no.	gene knocked down	reagent no.	droplet/nuclear area B-score, replicate 1	droplet/nuclear area B-score, replicate 2	droplet/nuclear area B-score, replicate 3
1	CG3919 (GeneID 39582)	1	2.12	0.0935	-0.0574
2	nec (GeneID 45908)	1	0.119	0.71	
3	CG11899 (GeneID 46391)	1	0.797	0.0273	
4	CG15894 (GeneID 31574)	1	0.996	0.527	
5	CG15894 (GeneID 31574)	2	2.78	5.49	
6	mwh (GeneID 38131)	1	-0.942	1.06	
7	upSET (GeneID 39551)	1	-0.43	-0.0958	-1.13
8	upSET (GeneID 39551)	2	3.23	4.32	
9	CG32117 (GeneID 317864)	1	-0.732	0.695	
10	CG15167 (GeneID 35134)	1	0.534	-1.8	
11	CG42299 + CG42300	1	-1.17	-0.792	
12	CG42299 + CG42300	2	-1.57	-0.687	
13	CG11839 (GeneID 43006)	1	0.25	-0.002	
14	CG11619 (GeneID 40072)	1	-1.22	-2.3	
15	CG9775 (GeneID 40576)	1	3.37	-1.6	-1.82
16	CG9775 (GeneID 40576)	2	1.41	0.914	
17	gcm2 (GeneID 34280)	1	0.432	0.00384	
18	Amy-d + Amy-p	1	0.322	0.504	
19	CG5390 (GeneID 34383)	1	-0.6	-1.13	
20	Tet (GeneID 38347)	1	-0.487	0.802	
21	CG6937 + btn	1	1.61	0.227	
22	ND-B17 (GeneID 34925)	1	0.788	-0.245	
23	CG14535 (GeneID 34073)	1	-0.41	-1.77	
24	His2B:CG33870 + His2B:CG33868 + His2B:CG33882 + 21 more	1	1.23	0.0393	
25	CG15071 (GeneID 37153)	1	-2.28	-1.04	
26	CG4884 (GeneID 43357)	1	1.77	-2.46	
27	nolo (GeneID 35424)	1	0.213	-0.455	
28	nolo (GeneID 35424)	2	-0.00229	-2.25	
29	nolo (GeneID 35424)	3	-0.306	0.536	
30	CG3021 (GeneID 53546)	1	-0.376	0.0123	
31	CG3021 (GeneID 53546)	2	-0.731	-0.807	
32	CG33255 (retired record) + hpRNA:CR32205 + hpRNA:CR32207	1	-0.0421	-1.01	
33	Nepl11 (GeneID 40540)	1	-1.82	0.0354	-1.5
34	CG10298 (GeneID 40779)	1	2.12	0.492	
35	CG12713 (GeneID 39724)	1	0.58	1.08	-0.587
36	ArfGAP3 (GeneID 40487)	1	0.0701	-0.0632	1.34
37	AP-1sigma (GeneID 42835)	1	-1.16	4.45	
38	glob3 (GeneID 40726)	1	0.145	-0.948	
39	14-3-3epsilon (GeneID 42186)	1	1.14	0.149	
40	Eb1 (GeneID 35584)	1	-0.63	1.04	
41	CG42335 (GeneID 42558)	1	-1.54	0.0391	
42	CG42335 (GeneID 42558)	2	0.347	-0.0972	
43	PAN3 (GeneID 38369)	1	-1.07	-0.0873	
44	CG4666 (GeneID 31541)	1	-0.347	-0.0365	
45	Or9a (GeneID 31975)	1	-0.677	0.858	-1.13
46	CG5323 (GeneID 37137)	1	0.972	0.611	
47	RpL37-1 (GeneID 32446)	1	-0.326	-0.118	0.0709
48	RpL37-1 (GeneID 32446)	2	0.352	4.66	
49	Ir25a (GeneID 33683)	1	0.832	-0.0368	
50	Obp19d (GeneID 33040)	1	3.29	2	
51	CG13130 (retired record) (GeneID 50439)	1	-1.64	-1.35	
52	Orc1 (GeneID 35686)	1	1.29	3.29	
53	CG7685 (GeneID 42220)	1	-0.0242	0.223	
54	Sgp (GeneID 34188)	1	-1.31	0.0766	
55	CG31823 (GeneID 326163)	1	0.327	1.57	
56	Cpr72Ec (GeneID 39816)	1	1.37	-1.31	-0.368

Look-ups from the list.
Entry of Amy-d + Amy-p under “droplet/nuclear area B-score, replicate 1”: 0.322
Under “droplet/nuclear area B-score, replicate 3”, CG3919 (GeneID 39582) shows -0.0574
Value of CG9775 (GeneID 40576) #2 under “droplet/nuclear area B-score, replicate 2”: 0.914
For “droplet/nuclear area B-score, replicate 1”, CG6937 + btn shows 1.61
CG33255 (retired record) + hpRNA:CR32205 + hpRNA:CR32207, droplet/nuclear area B-score, replicate 1 = -0.0421
Result for glob3 (GeneID 40726) under “droplet/nuclear area B-score, replicate 1”: 0.145
